Measurements as given in PubChem BioAssay AID1347075 (National Center for Advancing Translational Sciences (NCATS), 2019).
“And” between values parts separate entries of the source, which are not always exact repeats. Equal entries are not always repeated. The whole screen tested about 400,000 compounds, of which about 5,500 (1.4%) were called active. Inconclusive results, whose numbers are uncertain, are shown with a selection of clear calls. Calls follow the shape of the dose curve; as a rule, active = well fitted cell-killing curve with a large enough effect; inconclusive = small, poorly fitted or top-dose-only effect, or effect the other way; inactive = flat fitted curve, though single readings scatter. Potencies of inconclusive entries are doubtful fits and often do not repeat.

Test: qHTS assay for MDR1-selective chemotherapeutics: Primary screen using the parental adenocarcinoma cell KB-3-1; also: nearly all actives have a fitted effect of over 60% in size
Conditions: KB-3-1 viability, CellTiter-Glo ATP luminescence, 72 h; activity change, negative = cytotoxic: at 46.1 µM (top of the series)
Summary of the method: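 Viability of parental KB-3-1 cells, measured by CellTiter-Glo luminescence, followed a 72 h incubation at 37 °C with pinned compounds in phenol-red-free DMEM containing 10% FBS.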
% is scaled to controls: 0 for no effect and ±100 for the full control effect; potency is read from the fitted curve at half-maximal effect.

Row | SMILES | Potency | activity change, negative = cytotoxic
1 | Cc1ccc(NC(=O)c2cc(-c3cccs3)on2)cc1C | inconclusive: 23.1 µM [rising, single point] | 
2 | CC(C)c1ccc(OCC(=O)NNC(=S)NC(=O)c2ccco2)c(Br)c1 | inconclusive: 36.6 µM [cytotoxic, partial curve, poor fit] | 
3 | O=C(Cc1ccsc1-c1ccccc1)NO | inconclusive: 18.4 µM [cytotoxic, single point] | 
4 | Cc1cccc(Nc2nc(N)nc(CCl)n2)c1 | inconclusive: 29.1 µM [cytotoxic, single point] | 
5 | COC(=O)[C@@]12C[C@@H](CC(=O)NCc3cccc4ccccc34)C(=O)N(Cc3ccccc3)C1=CCC(C)(C)C2 | inconclusive: 18.4 µM [cytotoxic, single point] | 
6 | COc1ccc(/C=C2\Oc3ccccc3C2=O)cc1 | inconclusive: 29.1 µM [cytotoxic, single point] | 
7 | CCOc1ccc(-c2nn3c(-c4ccc(F)cc4)nnc3s2)cc1 | inactive | 
8 | O=C(c1ccc2ccccc2c1)N1CCc2ccccc21 | inactive | 
9 | CN(CC(=O)Nc1ccc(F)c(F)c1F)c1ncnc2sccc12 | inconclusive: 29.1 µM [rising, single point] | 
10 | C/C(=N\N1C(=O)c2ccccc2NC1c1ccco1)c1ccccc1O (stereo not drawn) | inconclusive: 20.6 µM [cytotoxic, single point] | 
11 | O=C(N/N=C/c1cc(Br)ccc1O)c1cccc(N2CCCC2=O)c1 | inconclusive: 14.6 µM [cytotoxic, partial curve, poor fit] | 
12 | O=C(N=Nc1c(O)n(C2OC(=O)c3ccccc32)c2ccccc12)c1ccc(O)cc1 (stereo not drawn) | inactive | 
13 | COc1ccc(C(=O)CN(C(=O)c2ccc(Cl)cc2)N2C(=O)C3CCCCC3C2=O)cc1 (stereo not drawn) | inconclusive: 23.1 µM [cytotoxic, single point] | 
14 | O=C(Nc1ccc(F)cc1)C(c1cccc(F)c1)N1CCN(c2ccncc2)CC1 (stereo not drawn) | inactive | 
15 | COc1ccc(NC(=O)CSc2ccc3ccccc3c2)cc1S(=O)(=O)N1CCCCC1 | inconclusive: 20.6 µM [cytotoxic, single point] | 
16 | COC(=O)c1c(-c2ccc(Cl)cc2)noc1N1CCN(c2cccc(OC)c2)CC1 | inactive | 
17 | COc1ccc(CCNC(=O)c2ccc(Cn3c(=O)c4ccccc4n(Cc4ccccc4Cl)c3=O)cc2)cc1OC | inactive | 
18 | Cc1ccc(NC(=O)Cn2cc(C(=O)c3cccs3)c3ccccc32)cc1C | inconclusive: 29.1 µM [cytotoxic, single point] | 
19 | Cn1c(Nc2ccc(Cl)cc2F)nc2cc(-c3ccccc3)sc2c1=O |  | inconclusive: 0%
20 | CCCCCNC(=O)c1cccc(S(=O)(=O)N2CC3(C)CC2CC(C)(C)C3)c1 (stereo not drawn) | inconclusive: 29.1 µM [cytotoxic, single point] | 
21 | CC(C)c1ccc2c(c1)C(N1CCN(C)CC1)Cc1cccnc1S2 (stereo not drawn) | inconclusive: 16.4 µM [cytotoxic, partial curve, poor fit] | 
22 | COc1ccc2[nH]c(=O)c3c(c2c1)OC(C)(C)C=C3 | inconclusive: 29.1 µM [cytotoxic, single point] | 
23 | CCOCc1c(C(=O)N2CCN(CCOc3ccc(Cl)cc3)CC2)oc2ccccc12 | inactive | 
24 | Nc1[nH]c(N=NC(=O)c2ccccc2O)c2ccccc12 | inconclusive: 16.4 µM [cytotoxic, single point] | 
25 | O=C(Nc1ccncc1)c1ccccc1F | inactive | 

Row | SMILES | Potency | activity change, negative = cytotoxic
26 | CC(=O)Nc1n[nH]c(=S)s1 | inconclusive: 0.58 µM [cytotoxic, full curve, poor fit] | 
27 | CC(C)Cc1nc2sc3c(SCC(N)=O)ncnc3c2c2c1CCC2 | inactive | 
28 | O=C(O)Cc1cn(Cc2ccc(F)cc2)c2ccccc12 | inactive | 
29 | CC(C)Cn1c(-c2ccc(S(=O)(=O)N3CCCC3)cc2)csc1=Nc1ccccc1 | inconclusive: 18.4 µM [cytotoxic, single point] | 
30 | O=C(Nc1ccc(Cl)cc1)Nc1ccc(Cl)c(Cl)c1 | inconclusive: 18.4 µM [cytotoxic, single point] and inconclusive: 29.1 µM [cytotoxic, single point] | 
31 | COc1ccc(C(=O)NC2CC2)cc1OC1CCN(Cc2cc(C)c(C)cc2C)CC1 | inconclusive: 9.2 µM [rising, partial curve] | 
32 | O=[N+]([O-])c1cc(/C=N/O)ccc1N1CCCC1 | inconclusive: 16.4 µM [cytotoxic, single point] | 
33 | CC(=O)Nc1ccc(NC(=O)C(C)OC(=O)C2CCCC2)cc1 (stereo not drawn) |  | inconclusive: 18.8%
34 | CCOc1ccc(-c2cc(C(=O)NCc3ccc(OC)cc3)c3c(-c4ccc(F)cc4)[nH]nc3n2)cc1 | inactive | 
35 | O=C(Nc1ccc(S(=O)(=O)Nc2cnc3ccccc3n2)cc1)c1cccc(OC(F)F)c1 | inconclusive: 14.6 µM [cytotoxic, single point] | 
36 | Cc1cccc(CSC(Nc2ccc(F)cc2)=C(C#N)C#N)c1 | active: 16.4 µM | 
37 | CCOC(=O)c1cccc(NC(=O)c2cc3c(=O)n(Cc4cccnc4)ccc3nc2C)c1 | inactive | 
38 | O=C(COc1ccccc1F)Nc1ccc2c(c1)OCCO2 | inactive | 
39 | Cc1cc(C)cc(NC(=O)CCc2nc3sc4c(c3c(=O)[nH]2)CCCC4)c1 | inconclusive: 20.6 µM [cytotoxic, single point] | 
40 | C/C(=N\NC(=O)c1nnn(-c2nonc2N)c1CN(C)c1ccccc1)c1ccccc1O | active: 6.51 µM | 
41 | O=C(N/N=C/c1ccc([N+](=O)[O-])o1)c1cn2ccc3ccccc3c2n1 | inactive | 
42 | O=C(CS(=O)(=O)c1ccc(F)cc1)Nc1nccs1 | inactive | 
43 | O=C1N/C(=N/O)S/C1=C/c1cccc([N+](=O)[O-])c1 | inactive | 
44 | N#Cc1c(NC(=O)CSc2nc3ccccc3s2)sc2c1CCCC2 | inactive | 
45 | COc1ccc(-c2cc([C@H]3[C@@H]4C=CCC[C@@]4(C)C(=O)N3Cc3ccccc3)ccc2F)cc1 | inconclusive: 20.6 µM [cytotoxic, single point] | 
46 | COc1ccccc1NS(=O)(=O)c1cc(NC(=O)Nc2ccc(Cl)cc2Cl)ccc1N1CCCCC1 | inconclusive: 10.3 µM [cytotoxic, partial curve, poor fit] | 
47 | O=[N+]([O-])c1ccc(S(=O)(=O)CC(CN2CCOCC2)N2CCOCC2)cc1 (stereo not drawn) | inconclusive: 16.4 µM [cytotoxic, single point] | 
48 | O=C1CSC2(C(=O)N(Cc3c(F)cccc3Cl)c3ccccc32)N1c1ccc(F)c(F)c1 (stereo not drawn) | inconclusive: 29.1 µM [cytotoxic, single point] | 
49 | COc1ccc(OC)c(S(=O)(=O)N(C)CC(=O)Nc2ccc3c(c2)OCO3)c1 |  | inconclusive: 32%
50 | CCOc1ccc(Cc2c(Cl)nc(SC)nc2N(C)C)cc1 | active: 11.6 µM | 

Record cards, as listed above:
COc1ccc(C(=O)NC2CC2)cc1OC1CCN(Cc2cc(C)c(C)cc2C)CC1 is listed with Potency: inconclusive: 9.2 µM [rising, partial curve]
O=C(CS(=O)(=O)c1ccc(F)cc1)Nc1nccs1 is listed with Potency: inactive
CCOc1ccc(-c2cc(C(=O)NCc3ccc(OC)cc3)c3c(-c4ccc(F)cc4)[nH]nc3n2)cc1 is listed with Potency: inactive

Next part.

Row | SMILES | Potency | activity change, negative = cytotoxic
51 | CC1=C/C(=N\OS(=O)(=O)c2ccccc2)C=CC1=O | inconclusive: 35.5 µM [cytotoxic, single point] | 
52 | COc1ccccc1CNC(=O)C12CC3CC(CC(C3)C1)C2 | inactive | 
53 | Cc1cc(C)c2nc(C(F)(F)F)nc(N3CCN(C(=O)c4ccco4)CC3)c2c1 | inactive | 
54 | O=C(NCc1cccnc1)c1cc(C2CCCCN2S(=O)(=O)Cc2ccccc2)on1 (stereo not drawn) | inactive | 
55 | O=[N+]([O-])c1cc(-c2nc(-c3ccncc3)no2)ccc1Cl | inactive | 
56 | Cc1cccc(CSc2ccc3nnc(CCNS(=O)(=O)c4ccccc4)n3n2)c1 | inactive | 
57 | CCCSc1nsc(SCCC)c1C#N |  | inconclusive: 6.12%
58 | CCNC(=O)c1c(O)c2c([nH]c1=O)CCCC2 | inconclusive: 16.4 µM [cytotoxic, single point] | 
59 | COc1cccc(NC(=O)C(Cc2ccccc2)NC(=O)C2CCC(C)CC2)c1 (stereo not drawn) | inconclusive: 29.1 µM [cytotoxic, single point] | 
60 | Cc1nc2c(C(=O)NCCc3ccccc3)c[nH]n2c(=O)c1Cc1ccccc1F | inactive | 
61 | CC1CCN(CC(CS(=O)(=O)c2ccc([N+](=O)[O-])cc2)N2CCC(C)CC2)CC1 (stereo not drawn) | active: 5.17 µM | 
62 | O=c1cc(-c2ccc(O)cc2)oc2ccccc12 | inconclusive: 16.4 µM [cytotoxic, partial curve] | 
63 | NC(=O)C1CCN(Cc2nc3cc(Cl)ccc3c(=O)[nH]2)CC1 | inconclusive: 29.1 µM [cytotoxic, single point] | 
64 | ClC1=C(Cl)C(Cl)=C(Cl)C1=C/C=C/c1ccccc1 | active: 4.61 µM | 
65 | COCCNC(=O)C1(C)CCCN(C(=O)c2ccccc2OC)C1 (stereo not drawn) | inactive | 
66 | O=C(c1cc(=O)[nH]c2ccccc12)N1CCN(S(=O)(=O)c2ccc3ccccc3c2)CC1 | inconclusive: 16.4 µM [cytotoxic, single point] | 
67 | COc1ccc(-c2nc3c4ccccc4n(CC(=O)Nc4ccc(C(C)=O)cc4)c(=O)n3n2)cc1 | inactive | 
68 | O=CN1CCCN(Cc2nc(Cc3ccccc3F)no2)CC1 |  | inconclusive: 2.62%
69 | CN(C)CCCN(C(=O)c1ccc(S(=O)(=O)N2CCc3ccccc32)cc1)c1nc2ccc(Cl)cc2s1 | inconclusive: 29.1 µM [cytotoxic, single point] | 
70 | Cc1ccc2ncnc(NCc3ccco3)c2c1 | inconclusive: 1.64 µM [cytotoxic, full curve] | 
71 | CCCCN(CC)S(=O)(=O)c1ccc(C(=O)Nc2nnc(-c3cccs3)o2)cc1 | active: 8.2 µM | 
72 | Cc1ccc(S(=O)(=O)N2CCc3ccccc3CC2)cc1 | inconclusive: 4.11 µM [cytotoxic, full curve, poor fit] | 
73 | CCc1nc2ccc(C(=O)NCCOc3ccc(OC)cc3)cn2c1N(CC)Cc1cccc(Br)c1 | inconclusive: 29.1 µM [cytotoxic, single point] | 
